# Results as given in PMC5006980.
# Protein sequences, listed by entry. Tags and fused reporters are not part of them. Residues count along the entry.
# UniProt P14349, residues 1-544: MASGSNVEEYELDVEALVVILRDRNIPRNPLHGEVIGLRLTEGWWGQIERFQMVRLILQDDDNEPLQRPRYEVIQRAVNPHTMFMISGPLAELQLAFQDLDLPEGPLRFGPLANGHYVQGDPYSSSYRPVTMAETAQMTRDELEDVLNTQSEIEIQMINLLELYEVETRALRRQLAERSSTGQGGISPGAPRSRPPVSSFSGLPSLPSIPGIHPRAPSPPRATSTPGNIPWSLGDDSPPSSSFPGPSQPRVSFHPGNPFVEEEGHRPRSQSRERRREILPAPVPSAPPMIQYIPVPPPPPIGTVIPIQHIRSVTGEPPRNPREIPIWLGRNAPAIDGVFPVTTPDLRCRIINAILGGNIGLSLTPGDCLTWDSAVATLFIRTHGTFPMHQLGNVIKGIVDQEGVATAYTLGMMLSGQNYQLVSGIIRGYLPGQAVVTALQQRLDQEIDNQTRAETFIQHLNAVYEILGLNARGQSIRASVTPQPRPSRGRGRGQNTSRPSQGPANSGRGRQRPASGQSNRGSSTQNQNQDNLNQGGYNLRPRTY
# UniProt P53350: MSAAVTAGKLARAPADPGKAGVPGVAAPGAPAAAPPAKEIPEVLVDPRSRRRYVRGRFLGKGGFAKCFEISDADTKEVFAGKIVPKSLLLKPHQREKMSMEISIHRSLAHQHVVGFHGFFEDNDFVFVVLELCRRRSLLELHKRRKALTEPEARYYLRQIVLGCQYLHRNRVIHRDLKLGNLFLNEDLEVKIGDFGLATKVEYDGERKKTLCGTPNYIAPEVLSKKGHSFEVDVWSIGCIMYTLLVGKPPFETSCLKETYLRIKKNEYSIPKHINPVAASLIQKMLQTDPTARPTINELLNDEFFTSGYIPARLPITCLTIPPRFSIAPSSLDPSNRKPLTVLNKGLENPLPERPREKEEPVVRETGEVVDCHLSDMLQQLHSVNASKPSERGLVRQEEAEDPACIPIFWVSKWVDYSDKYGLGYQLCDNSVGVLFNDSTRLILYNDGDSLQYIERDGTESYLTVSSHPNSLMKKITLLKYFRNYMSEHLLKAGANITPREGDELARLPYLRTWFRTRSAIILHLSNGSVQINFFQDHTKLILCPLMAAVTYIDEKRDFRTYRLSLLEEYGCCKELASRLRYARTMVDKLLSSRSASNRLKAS
# These are yes or no findings as the source states them, for the method shown. Some entries that bind do so weakly or less than the wild type.
# Molecular target: PFV Gag 1–544 fused to the GAL4 DNA binding domain (prototype foamy virus (PFV)) (UniProt P14349)
# Assay: two-hybrid; directed Y2H, Matchmaker System, S. cerevisiae AH109; baits fused to GAL4 DB, preys fused to GAL4 AD; growth on quadruple-dropout (-Leu/-Trp/-Ade/-His) agar after two to four days at 30°C
substance,measurement,value
full-length human PLK1 fused to the GAL4 activation domain (from UniProt P53350 1-603) (enzyme),binding,binds
